{"source": "PubChem BioAssay AID540276", "about": "(National Center for Advancing Translational Sciences (NCATS), 2011)", "note": "Several values for one entry are separate records, joined by “and”; a condition that tells them apart may be missing. Equal entries are not always repeated. Screen size: about 300,000 compounds; about 5,400 (1.8%) were called active. The inconclusive results got no clear call from the source; some entries with a clear call stand among them for comparison. Calls come from the whole dose curve; tested in HEK293 cells. A potency beside an inconclusive call is a rough fit, not a confirmed value. Potency is the fitted concentration of half-maximal effect."}
{"experiment": "qHTS for inhibitors of binding or entry into cells for Marburg Virus", "details": "Marburg virus pseudotyped entry inhibition, cell reporter; series mostly up to 37.8 µM"}
{"smiles": "CC1Oc2ccccc2OC1C(=O)Nc1ccccn1", "note": "(configuration not stated)", "Potency": "inconclusive: 2 µM [activator, single point]"}
{"smiles": "C[C@H]1CCC/C=C/[C@@H]2C[C@H](O)C[C@H]2[C@H](O)[C@H](S(=O)c2ccc(O)cc2)CC(=O)O1", "note": "(some centres not stated)", "Potency": "inconclusive: 1.12 µM [inhibitor, full curve, poor fit]"}
{"smiles": "COc1ccc(CN2CCNC(=O)C2CC(=O)NCCCn2cccn2)cc1C", "note": "(configuration not stated)", "Potency": "inactive"}
{"smiles": "COc1ccc(NC(=O)CSc2nc3ccccc3c(=O)n2CCCN2CCCCC2)c(OC)c1", "Potency": "inconclusive: 12.6 µM [inhibitor, partial curve, poor fit]"}
{"smiles": "CC(/C=N/NC(=O)Cn1nccc1C)=C\\c1ccc(C(C)C)cc1", "Potency": "inactive"}
{"smiles": "Cc1cccc(C)c1OCc1cc(C(=O)N2CCC(c3ccncc3)CC2)no1", "Potency": "inconclusive: 3.16 µM [inhibitor, single point]"}
{"smiles": "CC(C)(C)C(=O)c1sc(Nc2ccccc2)nc1N", "Potency": "inconclusive: 18.3 µM [inhibitor, single point]"}
{"smiles": "CCN(CC)CCN(C(=O)CCS(=O)(=O)c1ccccc1)c1nc2cc3c(cc2s1)OCO3", "Potency": "inconclusive: 22.4 µM [inhibitor, single point]"}
{"smiles": "C=CCOC(=O)C(C#N)c1nc2ccccc2nc1N1CCN(Cc2ccccc2)CC1", "note": "(configuration not stated)", "Potency": "inactive"}
{"smiles": "Cc1cccc(NC(=O)C(=O)NCC2CCCO2)c1", "note": "(configuration not stated)", "Potency": "inactive"}
{"smiles": "Cc1ccc(/C=N/N2CCN(Cc3cccc4ccccc34)CC2)o1", "Potency": "inconclusive: 1.26 µM [inhibitor, single point]"}
{"smiles": "O=C1NC(=O)C(=Cc2ccc(-c3ccccc3[N+](=O)[O-])o2)C(=O)N1", "Potency": "inconclusive: 35.5 µM [inhibitor, single point]"}
{"smiles": "Cc1ccc(NC(=O)c2ccc(NCCN)c([N+](=O)[O-])c2)cc1Cl", "Potency": "inconclusive: 35.5 µM [activator, single point]"}
{"smiles": "Cc1cc(CNC(=O)Cc2ccccc2)c2ccccc2n1", "Potency": "inactive"}
{"smiles": "O=C(CSc1ncccn1)N/N=C/c1cccs1", "Potency": "inconclusive: 29.1 µM [activator, single point]"}
{"smiles": "Nc1c(C(O)(C(F)(F)F)C(F)(F)F)ccc2ccccc12", "Potency": "inconclusive: 0.13 µM [inhibitor, single point]"}
{"smiles": "O=C(Cc1ccccc1)Nc1cc2c(cc1Cl)OCCCO2", "Potency": "inactive"}
{"smiles": "CC(=O)NC(c1ccc(C)cc1)c1cc([N+](=O)[O-])c2cccnc2c1O", "note": "(configuration not stated)", "Potency": "inconclusive: 14.1 µM [inhibitor, partial curve, poor fit]"}
{"smiles": "CC(=O)N1CCN(C(=O)CSc2nc3c(cnn3-c3ccccc3)c(=O)[nH]2)CC1", "Potency": "inactive"}
{"smiles": "CC(C)CCn1c(SCC#N)nc2c(sc3ccccc32)c1=O", "Potency": "inconclusive: 0.082 µM [inhibitor, full curve, poor fit]"}
{"smiles": "CCOCCCN1C(=O)CN(C2CCCCCC2)C(=O)C1c1ccc(OC)cc1", "note": "(configuration not stated)", "Potency": "inactive"}
{"smiles": "CCCn1nnc(NC(=S)NC(=O)C(C)(C)C)n1", "Potency": "inconclusive: 5.62 µM [activator, single point]"}
{"smiles": "Cc1cc(=O)oc2c(C)c(OCC(=O)N3CCN(c4ccc(F)cc4)CC3)ccc12", "Potency": "inconclusive: 2.82 µM [inhibitor, full curve]"}
{"smiles": "Cc1cc(/C=C2\\C(=O)NC(=O)N(C)C2=O)c(C)n1-c1ccc2c(c1)OCO2", "Potency": "inconclusive: 4.61 µM [activator, single point]"}
{"smiles": "O=C(NCc1ccccn1)Nc1ccccc1", "Potency": "inconclusive: 15.8 µM [activator, single point]"}
{"smiles": "Cc1cc(C(=O)Nc2nnc(C(F)(F)F)s2)cs1", "Potency": "inactive"}
{"smiles": "Cc1cccn2cc(CNS(=O)(=O)c3ccc4ccccc4c3)nc12", "Potency": "inactive"}
{"smiles": "C=CCc1cc(Cl)ccc1OCCOCCN(C)C", "Potency": "inconclusive: 15.8 µM [inhibitor, partial curve, poor fit]"}
{"smiles": "O=C1CC2(CCN(C(=O)c3cccc(Cl)c3)CC2)Oc2ccccc21", "Potency": "inactive"}
{"smiles": "COc1cccc(C(=O)NCc2nc(-c3ccccc3)no2)c1OC", "Potency": "inconclusive: 5.62 µM [activator, single point]"}
{"smiles": "COc1cccc(C2c3cc4c(cc3OC(NNC(N)=O)C2C)OCO4)c1O", "note": "(configuration not stated)", "Potency": "inconclusive: 2.82 µM [inhibitor, partial curve, poor fit]"}
{"smiles": "COc1cccc(CNC(=O)Cn2ncc3c4ccccc4n(Cc4ccccc4)c3c2=O)c1", "Potency": "inactive"}
{"smiles": "CCOc1ccc(Nc2nc3cc(S(=O)(=O)CC)ccc3o2)cc1", "Potency": "inactive"}
{"smiles": "Cc1nn(Cc2cccc(C(=O)Nc3ccn(Cc4ccccc4F)n3)c2)c(C)c1[N+](=O)[O-]", "Potency": "inconclusive: 10.3 µM [inhibitor, partial curve]"}
{"smiles": "COc1ccccc1CN(Cc1ccco1)c1cnc(S(C)(=O)=O)nc1C(=O)Nc1cc(C)ccc1C", "Potency": "inconclusive: 20 µM [inhibitor, partial curve, poor fit]"}
{"smiles": "COc1cc(O)c(C(=O)C=Cc2ccc3c(c2)OCO3)c(OC)c1", "Potency": "inconclusive: 0.0944 µM [activator, full curve, poor fit]"}
{"smiles": "COC(=O)C1(C)NC(c2ccc(O)cc2)C2C(=O)N(c3ccc4c(c3)OCCO4)C(=O)C21", "note": "(configuration not stated)", "Potency": "inactive"}
{"smiles": "CCOC(=O)N1CCN(S(=O)(=O)c2ccc(C(=O)Nc3sc4c(c3C(=O)OC)CCN(C)C4)cc2)CC1", "Potency": "inconclusive: 5.62 µM [inhibitor, full curve, poor fit]"}
{"smiles": "Cc1ccc(SCC(=O)Nc2ccc(S(=O)(=O)Nc3ncccn3)cc2)cc1", "Potency": "inconclusive: 5.17 µM [inhibitor, partial curve, poor fit]"}
{"smiles": "Cc1cc(OCCCCNC(C)C)cc(C(C)C)c1", "Potency": "active: 14.6 µM"}
{"smiles": "Cc1c(C(=O)Nc2ccc(F)cc2)c2ccccn2c1CCc1ccncc1", "Potency": "inconclusive: 35.5 µM [inhibitor, single point]"}
{"smiles": "CC1CCCN(CCCOc2ccc([N+](=O)[O-])cc2)C1", "note": "(configuration not stated)", "Potency": "inconclusive: 0.794 µM [activator, partial curve, poor fit]"}
{"smiles": "CC(=O)NC1C(OCCOc2ccc(Cl)cc2Cl)OC(COC(C)=O)C(OC(C)=O)C1OC(C)=O", "note": "(configuration not stated)", "Potency": "inconclusive: 3.16 µM [activator, single point]"}
{"smiles": "CCc1ccc(Oc2c(C(F)(F)F)oc3c(CN4CCN(C)CC4)c(O)ccc3c2=O)cc1", "Potency": "inactive"}
{"smiles": "Cc1ccccc1CNc1ncnc2c1ncn2C1OC(CO)C(O)C1O", "note": "(configuration not stated)", "Potency": "inactive and inconclusive: 2.51 µM [activator, full curve, poor fit]"}
{"smiles": "CCCCC(C(=O)NC1CCCC1)N(Cc1ccccc1)C(=O)c1snc(C(N)=O)c1N", "note": "(configuration not stated)", "Potency": "inconclusive: 18.3 µM [inhibitor, partial curve]"}
{"smiles": "Cc1ccc2cc(C#N)c(N3CCCN(S(=O)(=O)c4ccccc4)CC3)nc2c1C", "Potency": "inconclusive: 29.1 µM [inhibitor, single point]"}
{"smiles": "COc1ccccc1CN(C)CC(=O)Nc1cccc2ccccc12", "Potency": "inconclusive: 20 µM [inhibitor, partial curve, poor fit]"}
{"smiles": "Cc1[nH]n(-c2ccccc2)c(=O)c1N=Nc1cccc([N+](=O)[O-])c1", "Potency": "inconclusive: 17.8 µM [activator, single point]"}
{"smiles": "COc1ccc(C(=O)NCc2cn3ccccc3n2)cc1", "Potency": "inconclusive: 3.98 µM [activator, single point]"}
{"smiles": "CC(C)CC1c2[nH]c3ccccc3c2CCN1C(=O)C1CCOCC1", "note": "(configuration not stated)", "Potency": "inconclusive: 25.1 µM [inhibitor, single point]"}
{"smiles": "O=C(N/N=C/c1ccc(-c2cccc([N+](=O)[O-])c2)o1)c1ccccc1O", "Potency": "inconclusive: 5.62 µM [inhibitor, single point]"}
{"smiles": "CCOC(=O)N1CCN(C(=O)c2cn(C)c(=O)c3c2c2ccccc2n3C)CC1", "Potency": "inconclusive: 29.1 µM [inhibitor, single point]"}
{"smiles": "O=C(O)C(CCC(C(=O)O)c1ccccc1)c1ccccc1", "note": "(configuration not stated)", "Potency": "inconclusive: 2.82 µM [inhibitor, partial curve, poor fit]"}
{"smiles": "CC(C)(C)NC(=O)c1c(F)c(F)c(F)c(F)c1F", "Potency": "inconclusive: 5.17 µM [activator, partial curve, poor fit]"}
{"smiles": "O=C(CN1CCCCC1)Nc1nnc(-c2ccccc2)s1", "Potency": "inactive"}
{"smiles": "Cc1ccc(SCC(=O)OCC(=O)N(CC(C)C)c2c(N)n(Cc3ccccc3)c(=O)[nH]c2=O)cc1C", "Potency": "inconclusive: 14.1 µM [inhibitor, single point]"}
{"smiles": "Cc1ccc(S(=O)(=O)N/N=C2/CCCCC2C2CCCCC2)cc1[N+](=O)[O-]", "note": "(configuration not stated)", "Potency": "inconclusive: 3.98 µM [activator, single point]"}
{"smiles": "Clc1ccccc1Cn1nnc2c(N3CCCC3)ncnc21", "Potency": "inconclusive: 29.1 µM [inhibitor, single point]"}
{"smiles": "COc1cc([N+](=O)[O-])ccc1NC(=O)CN1CCc2cc(OC)c(OC)cc2C1", "Potency": "inactive"}
{"smiles": "CC1CC(=O)N(c2ccc(NCCc3ccc(O)cc3)c([N+](=O)[O-])c2)C1=O", "note": "(configuration not stated)", "Potency": "inactive"}
{"smiles": "COc1cc2c(cc1OC)CN(Cc1cc(=O)oc3cc(C)c(Cl)cc13)CC2", "Potency": "inconclusive: 3.16 µM [inhibitor, partial curve, poor fit]"}
{"smiles": "COc1ccccc1C(=O)Nc1nc(-c2ccc(S(=O)(=O)N3CCOCC3)cc2)cs1", "Potency": "active: 7.3 µM"}
{"smiles": "Cc1ccc(S(=O)(=O)NNC(=S)Nc2ccccc2)cc1", "Potency": "inconclusive: 11.2 µM [activator, partial curve, poor fit]"}
{"smiles": "Cc1ccc(OCc2nnc(SCC(=O)c3ccccc3)n2-c2ccccc2)cc1", "Potency": "inactive"}
{"smiles": "Cc1cc(C)n(CC(O)COCc2ccco2)n1", "note": "(configuration not stated)", "Potency": "inconclusive: 4.11 µM [activator, single point]"}
{"smiles": "Cc1cc(S(=O)(=O)Nc2cccnc2)c(C)s1", "Potency": "inactive"}
